{"source": "the supplement of paper PMC8728848", "test_in_all_cases": "glycan array binding signal (z-score within array); higher = stronger binding", "conditions_in_all_cases": "glycan notation: IUPAC condensed, linker removed", "key": {"[1]": {"target": "Man(a1-3)[Man(a1-6)]Man(a1-6)[Man(a1-2)Man(a1-3)]Man(b1-4)GlcNAc(b1-4)GlcNAc", "summary_of_the_method": "(§1)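 Glycan array binding is given as a within-array Z-score, which can be read as non-binding when negative. The arrays, 3228 of them, came from the Consortium for Functional Glycomics database and were retained only where the protein sequence was available. Z-scores were averaged across arrays of the same protein sequence at different concentrations or buffers and across linkers.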"}, "[2]": {"target": "Man(a1-3)[Man(a1-6)]Man(a1-6)[Man(a1-3)]Man", "summary_of_the_method": "as §1"}, "[3]": {"target": "Man(a1-3)[Man(a1-6)]Man(a1-6)[Man(a1-3)]Man(b1-4)GlcNAc(b1-4)GlcNAc", "summary_of_the_method": "as §1"}, "[4]": {"target": "Man(a1-3)[Man(a1-6)]Man(b1-4)GlcNAc(b1-4)GlcNAc", "summary_of_the_method": "as §1"}, "[5]": {"target": "Man(a1-3)[Man(a1-6)]Man(b1-4)GlcNAc(b1-4)[Fuc(a1-6)]GlcNAc", "summary_of_the_method": "as §1"}, "[6]": {"target": "Man(a1-6)Man", "summary_of_the_method": "as §1"}, "[7]": {"target": "Man(b1-4)GlcNAc", "summary_of_the_method": "as §1"}, "[8]": {"target": "MurNAc(b1-4)GlcNAc", "summary_of_the_method": "as §1"}, "[9]": {"target": "Neu5Ac(a2-3)Gal", "summary_of_the_method": "as §1"}, "[10]": {"target": "Neu5Ac(a2-3)Gal(b1-3)GalNAc", "summary_of_the_method": "as §1"}, "[11]": {"target": "Neu5Ac(a2-3)Gal(b1-3)GalNAc(b1-3)Gal(a1-4)Gal(b1-4)Glc", "summary_of_the_method": "as §1"}, "[12]": {"target": "Neu5Ac(a2-3)Gal(b1-3)GalNAc(b1-4)[Neu5Ac(a2-3)]Gal(b1-4)Glc", "summary_of_the_method": "as §1"}, "[13]": {"target": "Neu5Ac(a2-3)Gal(b1-3)GalNAc(b1-4)[Neu5Ac(a2-8)Neu5Ac(a2-3)]Gal(b1-4)Glc", "summary_of_the_method": "as §1"}, "[14]": {"target": "Neu5Ac(a2-3)Gal(b1-3)GalNAc6S", "summary_of_the_method": "as §1"}, "[15]": {"target": "Neu5Ac(a2-3)Gal(b1-3)GlcNAc", "summary_of_the_method": "as §1"}, "[16]": {"target": "Neu5Ac(a2-3)Gal(b1-3)GlcNAc(b1-2)Man", "summary_of_the_method": "as §1"}, "[17]": {"target": "Neu5Ac(a2-3)Gal(b1-3)GlcNAc(b1-2)Man(a1-3)[GlcNAc(b1-4)][Neu5Ac(a2-3)Gal(b1-3)GlcNAc(b1-2)Man(a1-6)]Man(b1-4)GlcNAc(b1-4)GlcNAc", "summary_of_the_method": "as §1"}, "[18]": {"target": "Neu5Ac(a2-3)Gal(b1-3)GlcNAc(b1-2)Man(a1-3)[Neu5Ac(a2-3)Gal(b1-3)GlcNAc(b1-2)Man(a1-6)]Man(b1-4)GlcNAc(b1-4)GlcNAc", "summary_of_the_method": "as §1"}, "[19]": {"target": "Neu5Ac(a2-3)Gal(b1-3)GlcNAc(b1-3)Gal(b1-3)GlcNAc", "summary_of_the_method": "as §1"}, "[20]": {"target": "Neu5Ac(a2-3)Gal(b1-3)GlcNAc(b1-3)Gal(b1-4)GlcNAc", "summary_of_the_method": "as §1"}, "[21]": {"target": "Neu5Ac(a2-3)Gal(b1-3)GlcNAc(b1-3)GalNAc", "summary_of_the_method": "as §1"}, "[22]": {"target": "Neu5Ac(a2-3)Gal(b1-3)GlcNAc(b1-4)Gal(b1-4)Glc", "summary_of_the_method": "as §1"}, "[23]": {"target": "Neu5Ac(a2-3)Gal(b1-3)GlcNAc(b1-6)GalNAc", "summary_of_the_method": "as §1"}, "[24]": {"target": "Neu5Ac(a2-3)Gal(b1-3)GlcNAc6S", "summary_of_the_method": "as §1"}, "[25]": {"target": "Neu5Ac(a2-3)Gal(b1-3)[Fuc(a1-4)]GlcNAc", "summary_of_the_method": "as §1"}, "[26]": {"target": "Neu5Ac(a2-3)Gal(b1-3)[Fuc(a1-4)]GlcNAc(b1-3)Gal(b1-3)[Fuc(a1-4)]GlcNAc", "summary_of_the_method": "as §1"}, "[27]": {"target": "Neu5Ac(a2-3)Gal(b1-3)[Fuc(a1-4)]GlcNAc(b1-3)Gal(b1-4)[Fuc(a1-3)]GlcNAc", "summary_of_the_method": "as §1"}, "[28]": {"target": "Neu5Ac(a2-3)Gal(b1-3)[GlcNAc(b1-6)]GalNAc", "summary_of_the_method": "as §1"}, "[29]": {"target": "Neu5Ac(a2-3)Gal(b1-3)[Neu5Ac(a2-6)]GalNAc", "summary_of_the_method": "as §1"}, "[30]": {"target": "Neu5Ac(a2-3)Gal(b1-3)[Neu5Ac(a2-6)]GlcNAc(b1-3)[Fuc(a1-3)[Gal(b1-4)]GlcNAc(b1-6)]Gal(b1-4)Glc", "summary_of_the_method": "as §1"}, "[31]": {"target": "Neu5Ac(a2-3)Gal(b1-3)]Neu5Ac(a2-3)Gal(b1-4)]GlcNAc", "summary_of_the_method": "as §1"}, "[32]": {"target": "Neu5Ac(a2-3)Gal(b1-4)Glc", "summary_of_the_method": "as §1"}, "[33]": {"target": "Neu5Ac(a2-3)Gal(b1-4)GlcNAc", "summary_of_the_method": "as §1"}, "[34]": {"target": "Neu5Ac(a2-3)Gal(b1-4)GlcNAc(b1-2)Man", "summary_of_the_method": "as §1"}, "[35]": {"target": "Neu5Ac(a2-3)Gal(b1-4)GlcNAc(b1-2)Man(a1-3)[GlcNAc(b1-4)][Neu5Ac(a2-3)Gal(b1-4)GlcNAc(b1-2)Man(a1-6)]Man(b1-4)GlcNAc(b1-4)GlcNAc", "summary_of_the_method": "as §1"}, "[36]": {"target": "Neu5Ac(a2-3)Gal(b1-4)GlcNAc(b1-2)Man(a1-3)[Neu5Ac(a2-3)Gal(b1-4)GlcNAc(b1-2)Man(a1-6)]Man(b1-4)GlcNAc(b1-4)GlcNAc", "summary_of_the_method": "as §1"}, "[37]": {"target": "Neu5Ac(a2-3)Gal(b1-4)GlcNAc(b1-2)Man(a1-3)[Neu5Ac(a2-3)Gal(b1-4)GlcNAc(b1-2)Man(a1-6)]Man(b1-4)GlcNAc(b1-4)[Fuc(a1-6)]GlcNAc", "summary_of_the_method": "as §1"}, "[38]": {"target": "Neu5Ac(a2-3)Gal(b1-4)GlcNAc(b1-2)Man(a1-3)[Neu5Ac(a2-6)Gal(b1-4)GlcNAc(b1-2)Man(a1-6)]Man(b1-4)GlcNAc(b1-4)GlcNAc", "summary_of_the_method": "as §1"}}, "note": "This is one part of the list."}
{"binder": "AT5G17240(42) (Arabidopsis thaliana), Q6NQJ8 (protein) MDLEHQTMETFLRWAAEIGISDSIDSSRFRDSCLGHSLSVSDFPDAGGRGLGAARELKKGELVLKVPRKALMTTESIIAKDLKLSDAVNLHNSLSSTQILSVCLLYEMSKEKKSFWYPYLFHIPRDYDLLATFGNFEKQALQVEDAVWATEKATAKCQSEWKEAGSLMKELELKPKFRSFQAWLWASATISSRTLHVPWDSAGCLCPVGDLFNYDAPGDYSNTPQGPESANNVEEAGLVVETHSERLTDGGFEEDVNAYCLYARRNYQLGEQVLLCYGTYTNLELLEHYGFMLEENSNDKVFIPLETSLFSLASSWPKDSLYIHQDGKLSFALISTLRLWLIPQSQRDKSVMRLVYAGSQISVKNEILVMKWMSEKCGSVLRDLPTSVTEDTVLLHNIDKLQDPELRLEQKETEAFGSEVRAFLDANCLWDVTVLSGKPIEFSRKTSRMLSKWRWSVQWRLSYKRTLADCISYCNEKMNNLLGTQDRLRDL", "values": [{"measurement": "glycan array binding signal (z-score)", "setting": "[1]", "result": -0.73}, {"measurement": "glycan array binding signal (z-score)", "setting": "[2]", "result": 0.952}, {"measurement": "glycan array binding signal (z-score)", "setting": "[3]", "result": -0.935}, {"measurement": "glycan array binding signal (z-score)", "setting": "[4]", "result": -0.529}, {"measurement": "glycan array binding signal (z-score)", "setting": "[5]", "result": -0.479}, {"measurement": "glycan array binding signal (z-score)", "setting": "[6]", "result": 0.232}, {"measurement": "glycan array binding signal (z-score)", "setting": "[7]", "result": -0.269}, {"measurement": "glycan array binding signal (z-score)", "setting": "[8]", "result": 0.035}, {"measurement": "glycan array binding signal (z-score)", "setting": "[9]", "result": -0.622}, {"measurement": "glycan array binding signal (z-score)", "setting": "[10]", "result": -0.438}, {"measurement": "glycan array binding signal (z-score)", "setting": "[11]", "result": -0.209}, {"measurement": "glycan array binding signal (z-score)", "setting": "[12]", "result": -0.579}, {"measurement": "glycan array binding signal (z-score)", "setting": "[13]", "result": -0.186}, {"measurement": "glycan array binding signal (z-score)", "setting": "[14]", "result": -0.501}, {"measurement": "glycan array binding signal (z-score)", "setting": "[15]", "result": -0.126}, {"measurement": "glycan array binding signal (z-score)", "setting": "[16]", "result": -0.503}, {"measurement": "glycan array binding signal (z-score)", "setting": "[17]", "result": -0.091}, {"measurement": "glycan array binding signal (z-score)", "setting": "[18]", "result": 0.064}, {"measurement": "glycan array binding signal (z-score)", "setting": "[19]", "result": -0.399}, {"measurement": "glycan array binding signal (z-score)", "setting": "[20]", "result": 0.844}, {"measurement": "glycan array binding signal (z-score)", "setting": "[21]", "result": -0.424}, {"measurement": "glycan array binding signal (z-score)", "setting": "[22]", "result": -0.677}, {"measurement": "glycan array binding signal (z-score)", "setting": "[23]", "result": -0.124}, {"measurement": "glycan array binding signal (z-score)", "setting": "[24]", "result": -0.439}, {"measurement": "glycan array binding signal (z-score)", "setting": "[25]", "result": -0.652}, {"measurement": "glycan array binding signal (z-score)", "setting": "[26]", "result": -0.045}, {"measurement": "glycan array binding signal (z-score)", "setting": "[27]", "result": -0.202}, {"measurement": "glycan array binding signal (z-score)", "setting": "[28]", "result": -0.699}, {"measurement": "glycan array binding signal (z-score)", "setting": "[29]", "result": -0.27}, {"measurement": "glycan array binding signal (z-score)", "setting": "[30]", "result": -0.411}, {"measurement": "glycan array binding signal (z-score)", "setting": "[31]", "result": -0.694}, {"measurement": "glycan array binding signal (z-score)", "setting": "[32]", "result": -0.147}, {"measurement": "glycan array binding signal (z-score)", "setting": "[33]", "result": -0.307}, {"measurement": "glycan array binding signal (z-score)", "setting": "[34]", "result": -0.365}, {"measurement": "glycan array binding signal (z-score)", "setting": "[35]", "result": 0.141}, {"measurement": "glycan array binding signal (z-score)", "setting": "[36]", "result": -0.387}, {"measurement": "glycan array binding signal (z-score)", "setting": "[37]", "result": -0.389}, {"measurement": "glycan array binding signal (z-score)", "setting": "[38]", "result": -0.207}]}
